Experimental data published in patent US9932368B2 (INFINITEC ACTIVOS S.L, priority 2013, dated 2018).
The star is where a group is joined. Palmitoyl = CCCCCCCCCCCCCCCC(=O)*

Experiment: general procedure: Fmoc solid-phase peptide synthesis; 4-methylbenzhydrylamine (MBHA) resin (1.00 g, 0.65 mmol/g); DIPCDI/HOAt; re-coupling with HATU/DIEA or PyBOP/HOAt/DIEA
Conditions: whole synthesis, scale of the general procedure 1.00 g resin

Row | Substance | purity (crude or final not stated) (220 nm) | purity (crude or final not stated) (RP-HPLC, C18, 220 nm)
1 | Palmitoyl-RGDGANPNAAG-NH2 | 92.80% | greater than 90%
2 | Palmitoyl-RGDGPQGPQ-NH2 | 97.82% | greater than 97%
3 | Palmitoyl-WRFQWQFEQ-NH2 | 95.19% | greater than 95%
